# In PMC13144351:
# Amino acid sequences for entries named in this document (tags omitted).
# UniProt O94822: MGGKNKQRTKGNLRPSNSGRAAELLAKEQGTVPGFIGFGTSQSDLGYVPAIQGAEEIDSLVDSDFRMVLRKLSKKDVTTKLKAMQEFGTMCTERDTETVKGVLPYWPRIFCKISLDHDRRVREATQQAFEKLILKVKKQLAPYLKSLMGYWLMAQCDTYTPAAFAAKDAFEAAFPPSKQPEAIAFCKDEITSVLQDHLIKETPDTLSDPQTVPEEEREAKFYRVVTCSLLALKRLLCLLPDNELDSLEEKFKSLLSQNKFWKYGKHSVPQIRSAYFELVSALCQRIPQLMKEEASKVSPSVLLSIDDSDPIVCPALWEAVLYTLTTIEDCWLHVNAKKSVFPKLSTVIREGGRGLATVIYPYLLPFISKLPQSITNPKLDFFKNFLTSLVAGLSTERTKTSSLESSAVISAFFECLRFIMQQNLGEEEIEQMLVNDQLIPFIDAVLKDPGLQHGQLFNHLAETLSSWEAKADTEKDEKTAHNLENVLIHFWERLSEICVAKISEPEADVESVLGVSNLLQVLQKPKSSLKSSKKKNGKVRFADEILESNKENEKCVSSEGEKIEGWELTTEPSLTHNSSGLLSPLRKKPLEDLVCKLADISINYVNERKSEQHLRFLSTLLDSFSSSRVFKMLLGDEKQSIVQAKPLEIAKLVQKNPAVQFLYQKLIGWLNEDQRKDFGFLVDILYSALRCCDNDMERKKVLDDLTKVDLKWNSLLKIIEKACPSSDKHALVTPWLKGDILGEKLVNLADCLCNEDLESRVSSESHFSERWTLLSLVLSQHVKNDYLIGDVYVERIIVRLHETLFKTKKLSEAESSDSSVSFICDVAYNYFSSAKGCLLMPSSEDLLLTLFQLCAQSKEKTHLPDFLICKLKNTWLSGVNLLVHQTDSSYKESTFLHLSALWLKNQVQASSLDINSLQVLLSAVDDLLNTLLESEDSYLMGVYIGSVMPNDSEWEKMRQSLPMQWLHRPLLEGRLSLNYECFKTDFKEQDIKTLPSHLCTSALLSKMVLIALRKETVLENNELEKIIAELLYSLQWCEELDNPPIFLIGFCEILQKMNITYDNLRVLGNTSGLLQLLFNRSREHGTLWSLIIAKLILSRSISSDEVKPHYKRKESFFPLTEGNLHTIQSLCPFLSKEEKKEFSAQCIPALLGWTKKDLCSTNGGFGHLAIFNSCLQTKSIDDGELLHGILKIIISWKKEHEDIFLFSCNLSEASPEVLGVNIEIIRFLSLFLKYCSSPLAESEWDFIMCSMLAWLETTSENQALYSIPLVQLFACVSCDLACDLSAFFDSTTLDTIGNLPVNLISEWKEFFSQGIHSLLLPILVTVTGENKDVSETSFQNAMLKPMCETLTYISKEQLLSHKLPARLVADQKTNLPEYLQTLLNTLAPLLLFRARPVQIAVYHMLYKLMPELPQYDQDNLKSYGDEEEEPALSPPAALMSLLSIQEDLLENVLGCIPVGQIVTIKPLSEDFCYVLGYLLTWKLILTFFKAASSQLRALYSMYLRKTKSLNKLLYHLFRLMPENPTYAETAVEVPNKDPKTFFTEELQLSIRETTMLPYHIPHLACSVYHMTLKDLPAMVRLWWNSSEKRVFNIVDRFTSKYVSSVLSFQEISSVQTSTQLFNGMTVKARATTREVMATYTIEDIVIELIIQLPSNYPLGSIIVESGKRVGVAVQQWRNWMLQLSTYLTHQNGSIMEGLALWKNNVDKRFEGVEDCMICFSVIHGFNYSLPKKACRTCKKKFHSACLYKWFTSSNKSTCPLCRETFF
# No constants are given. Whether binding was seen depends on the method and setting. Binding seen in cells or lysates may run through a third protein. Binding can be weak; no strength is given.
# B1: NEMF (protein, UniProt O60524 1-1076)
# chain: MKSRFSTIDLRAVLAELNASLLGMRVNNVYDVDNKTYLIRLQKPDFKATLLLESGIRIHTTEFEWPKNMMPSSFAMKCRKHLKSRRLVSAKQLGVDRIVDFQFGSDEAAYHLIIELYDRGNIVLTDYEYVILNILRFRTDEADDVKFAVRERYPLDHARAAEPLLTLERLTEIVASAPKGELLKRVLNPLLPYGPALIEHCLLENGFSGNVKVDEKLETKDIEKVLVSLQKAEDYMKTTSNFSGKGYIIQKREIKPSLEADKPVEDILTYEEFHPFLFSQHSQCPYIEFESFDKAVDEFYSKIEGQKIDLKALQQEKQALKKLDNVRKDHENRLEALQQAQEIDKLKGELIEMNLQIVDRAIQVVRSALANQIDWTEIGLIVKEAQAQGDPVASAIKELKLQTNHVTMLLRNPYLLSEEEDDDVDGDVNVEKNETEPPKGKKKKQKNKQLQKPQKNKPLLVDVDLSLSAYANAKKYYDHKRYAAKKTQKTVEAAEKAFKSAEKKTKQTLKEVQTVTSIQKARKVYWFEKFLWFISSENYLIIGGRDQQQNEIIVKRYLTPGDIYVHADLHGATSCVIKNPTGEPIPPRTLTEAGTMALCYSAAWDARVITSAWWVYHHQVSKTAPTGEYLTTGSFMIRGKKNFLPPSYLMMGFSFLFKVDESCVWRHQGERKVRVQDEDMETLASCTSELISEEMEQLDGGDTSSDEDKEEHETPVEVELMTQVDQEDITLQSGRDELNEELIQEESSEDEGEYEEVRKDQDSVGEMKDEGEETLNYPDTTIDLSHLQPQRSIQKLASKEESSNSSDSKSQSRRHLSAKERREMKKKKLPSDSGDLEALEGKDKEKESTVHIETHQNTSKNVAAVQPMKRGQKSKMKKMKEKYKDQDEEDRELIMKLLGSAGSNKEEKGKKGKKGKTKDEPVKKQPQKPRGGQRVSDNIKKETPFLEVITHELQDFAVDDPHDDKEEQDLDQQGNEENLFDSLTGQPHPEDVLLFAIPICAPYTTMTNYKYKVKLTPGVQKKGKAAKTALNSFMHSKEATAREKDLFRSVKDTDLSRNIPGKVKVSAPNLLNVKRK
# Target: 3xFLAG-UFM1 (ubiquitin-fold modifier 1, endogenously tagged) (human) (UniProt P61960)
# Assay: co-IP; anti-FLAG M2 on protein G Dynabeads; cleared digitonin lysates of HCT116 or RKO iCas9 3xFLAG-UFM1 cells or parental cells, untreated or 200 nM anisomycin 1 h; 4 °C, 2 h; immunoblot
row,binding,Molecule
1,binds,LTN1 (from UniProt O94822 1-1766)
2,binds,B1
